Measured values reported in PubChem BioAssay (NCATS).
The shares of active, inactive and inconclusive entries below differ from those in the screen. For some of these results: Potencies beside an inconclusive call are fits to weak or partial responses and may not hold up. Active and inactive are the calls of the source. The call rests on the fitted dose curve; in most records, active means well fitted curve in the direction sought with a large enough effect; inconclusive means small, poorly fitted or top-dose-only effect, or another doubt; inactive means no such curve, though single readings can be large; an effect the other way counts as inactive or inconclusive.

Legend:
[1] = Quantitative High-Throughput drug screen in 47 multiple myeloma cell lines against the NCATS MIPE library collection: MOLP8_DSMZ cell viability assay (AID 1918977); further: nearly all actives have a fitted effect of over 45% in size; further: potency means the concentration at half of the fitted maximal effect;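 on viability (% of control): 100% = DMSO-only wells and 0% = media-only wells without cells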
Summary of the method: (§1)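 Cells were exposed to library compounds for 48 hours, after which ATP was measured by CellTiter-Glo. Signal was taken as median relative luminescence units.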

[2] = Quantitative High-Throughput drug screen in 47 multiple myeloma cell lines against the NCATS MIPE library collection: L363_DSMZ cell viability assay (AID 1918984); conditions: L363 myeloma viability, CellTiter-Glo ATP luminescence, 48 h; viability (% of control): at 45.8 µM (top of the series); further: nearly all actives have a fitted effect of over 40% in size; further: potency means the concentration at half of the fitted maximal effect
Summary of the method: as §1

[3] = Quantitative High-Throughput drug screen in 47 multiple myeloma cell lines against the NCATS MIPE library collection: KMS34_JCRB cell viability assay (AID 1918985); conditions: KMS34 myeloma viability, CellTiter-Glo ATP luminescence, 48 h; viability, percent of control: at 45.8 µM;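 further: 100% = DMSO-only wells and 0% = media-only wells; nearly all actives have a fitted effect of over 40% in size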
Summary of the method: as §1

[4] = Quantitative High-Throughput drug screen in 47 multiple myeloma cell lines against the NCATS MIPE library collection: OCIMY7_PLB cell viability assay (AID 1918987); conditions: OCI-MY7 myeloma viability, CellTiter-Glo ATP, 48 h; viability (% of DMSO): at 45.8 µM unless noted; further: nearly all actives have a fitted effect of over 65% in size; further: potency means the concentration at half of the fitted maximal effect
Summary of the method: as §1

[5] = Quantitative High-Throughput drug screen in 47 multiple myeloma cell lines against the NCATS MIPE library collection: OCIMY5_PLB cell viability assay (AID 1918988); conditions: OCI-MY5 myeloma viability, ATP luminescence, 48 h; viability, % of control: at 45.8 µM; further: nearly all actives have a fitted effect of over 65% in size; further: potency means the concentration at half of the fitted maximal effect;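 on viability, % of control: 100% = DMSO-treated wells and 0% = wells with media alone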
Summary of the method: as §1

[6] = Quantitative High-Throughput drug screen in 47 multiple myeloma cell lines against the NCATS MIPE library collection: SKMM1_PLB cell viability assay (AID 1919863); conditions: SKMM1 myeloma viability, CellTiter-Glo ATP, 48 h; viability: hits give low values; further: nearly all actives have a fitted effect of over 35% in size; further: potency means the concentration at half of the fitted maximal effect
Summary of the method: as §1

[7] = Quantitative High-Throughput drug screen in 47 multiple myeloma cell lines against the NCATS MIPE library collection: U266_ATCC cell viability assay (AID 1919864); further: nearly all actives have a fitted effect of over 35% in size; further: potency means the concentration at half of the fitted maximal effect;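 on viability (% of DMSO control): 0% = media-only wells without cells and 100% = DMSO-only wells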
Summary of the method: as §1

[8] = Quantitative High-Throughput drug screen in 47 multiple myeloma cell lines against the NCATS MIPE library collection: XG6_PLB cell viability assay (AID 1919865); conditions: XG6 myeloma viability, CellTiter-Glo ATP luminescence, 48 h; viability (% of control): at 45.8 µM; further: nearly all actives have a fitted effect of over 40% in size; further: potency means the concentration at half of the fitted maximal effect;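 on viability (% of control): 100% = DMSO-only wells and 0% = media-only wells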
Summary of the method: as §1

[9] = Quantitative High-Throughput drug screen in 47 multiple myeloma cell lines against the NCATS MIPE library collection: VP6_DJ cell viability assay (AID 1919867); conditions: ATP luminescence, 48 h; viability (% of DMSO): at 45.8 µM; further: potency means the concentration at half of the fitted maximal effect; nearly all actives have a fitted effect of over 40% in size
Summary of the method: as §1

[10] = Quantitative High-Throughput drug screen in 47 multiple myeloma cell lines against the NCATS MIPE library collection: UTMC2_PLB cell viability assay (AID 1919868); conditions: CellTiter-Glo ATP luminescence, 48 h; viability (% of DMSO control): at 45.8 µM; further: nearly all actives have a fitted effect of over 55% in size; further: potency means the concentration at half of the fitted maximal effect;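 on viability (% of DMSO control): 100% = DMSO-only wells and 0% = media-only wells without cells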
Summary of the method: as §1

[11] = Quantitative High-Throughput drug screen in 47 multiple myeloma cell lines against the NCATS MIPE library collection: PE2_PLB cell viability assay (AID 1919869); conditions: PE2_PLB myeloma cells viability, ATP luminescence, 48 h; viability (% of control): at 45.8 µM; further: potency means the concentration at half of the fitted maximal effect; nearly all actives have a fitted effect of over 35% in size
Summary of the method: as §1

[12] = Quantitative High-Throughput drug screen in 47 multiple myeloma cell lines against the NCATS MIPE library collection: PCM6_Riken cell viability assay (AID 1919870); conditions: CellTiter-Glo ATP, 48 h; viability (% of control): at 45.8 µM; further: nearly all actives have a fitted effect of over 30% in size; further: potency means the concentration at half of the fitted maximal effect;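 on viability (% of control): 100% = DMSO-only wells and 0% = media-only wells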
Summary of the method: as §1

[13] = Quantitative High-Throughput drug screen in 47 multiple myeloma cell lines against the NCATS MIPE library collection: LP1_DSMZ cell viability assay (AID 1918982); further: nearly all actives have a fitted effect of over 35% in size; further: potency means the concentration at half of the fitted maximal effect
Summary of the method: as §1

[14] = Quantitative High-Throughput drug screen in 47 multiple myeloma cell lines against the NCATS MIPE library collection: NCIH929_DSMZ cell viability assay (AID 1918978); conditions: NCI-H929 myeloma viability, CellTiter-Glo ATP, 48 h; viability, % of control: at 45.8 µM
Summary of the method: as §1

[15] = Quantitative High-Throughput drug screen in 47 multiple myeloma cell lines against the NCATS MIPE library collection: OCIMY1_PLB cell viability assay (AID 1918979)
Summary of the method: as §1

[16] = Quantitative High-Throughput drug screen in 47 multiple myeloma cell lines against the NCATS MIPE library collection: MM1S_ATCC cell viability assay (AID 1918980); further: potency means the concentration at half of the fitted maximal effect; nearly all actives have a fitted effect of over 45% in size
Summary of the method: as §1

[17] = Quantitative High-Throughput drug screen in 47 multiple myeloma cell lines against the NCATS MIPE library collection: OPM1_PLB cell viability assay (AID 1918989); conditions: CellTiter-Glo, 48 h; viability (% of control): at 45.8 µM
Summary of the method: as §1

[18] = Quantitative High-Throughput drug screen in 47 multiple myeloma cell lines against the NCATS MIPE library collection: XG1_PLB cell viability assay (AID 1919866); further: nearly all actives have a fitted effect of over 35% in size; further: potency means the concentration at half of the fitted maximal effect
Summary of the method: as §1

[19] = Quantitative High-Throughput drug screen in 47 multiple myeloma cell lines against the NCATS MIPE library collection: KMS28PE_JCRB cell viability assay (AID 1918983); further: nearly all actives have a fitted effect of over 35% in size; further: potency means the concentration at half of the fitted maximal effect
Summary of the method: as §1

OC[C@H]1O[C@@H](O[C@H]2[C@@H](O)[C@@](O)(CO)O[C@@H]2CO)[C@H](O)[C@@H](O)[C@@H]1O
inconclusive: Potency [1] 0.001 µM [cytotoxic] | Potency [9] 5.9 µM [cytotoxic, partial curve, poor fit] | Potency [11] 7.43 µM [cytotoxic, partial curve, poor fit] | Potency [12] 0.0105 µM [cytotoxic, full curve, poor fit]
inactive: Potency [2] | Potency [3] | Potency [4] | Potency [5] | viability [6] 96.6% | Potency [7] | Potency [8] | Potency [10]

O=C(CCCCCCC(=O)Nc1ccc([C@H]2O[C@@H](CSc3nc(-c4ccccc4)c(-c4ccccc4)o3)C[C@@H](c3ccc(CO)cc3)O2)cc1)NO
inconclusive: Potency [2] 0.0074 µM [cytotoxic, full curve, poor fit]
active: Potency [1] 14.8 µM | Potency [13] 11.8 µM

CCn1c(-c2nonc2N)nc2cncc(CNC3CCNCC3)c21
inactive: Potency [13] | Potency [7]
active: Potency [16] 14.8 µM | Potency [11] 5.9 µM
inconclusive: Potency [14] 20.9 µM [cytotoxic, partial curve] | Potency [15] 20.9 µM [cytotoxic, partial curve, poor fit] | Potency [2] 0.743 µM [cytotoxic, full curve, poor fit] | Potency [4] 3.32 µM [cytotoxic, full curve, poor fit] | Potency [17] 2.35 µM [cytotoxic, full curve, poor fit] | Potency [6] 3.72 µM [cytotoxic, full curve, poor fit] | Potency [8] 0.0059 µM [rising, full curve, poor fit] | Potency [18] 1.48 µM [cytotoxic, full curve, poor fit] | Potency [9] 3.72 µM [cytotoxic, partial curve, poor fit] | Potency [10] 10.5 µM [cytotoxic, partial curve, poor fit]

NCCCC(O)(P(=O)(O)O)P(=O)(O)O
inactive: Potency [1] | Potency [13] | Potency [19] | viability [6] 137% | Potency [18]
inconclusive: Potency [4] 1.32 µM [rising, partial curve, poor fit] | Potency [5] 1.32 µM [cytotoxic, full curve, poor fit] | Potency [7] 5.26 µM [cytotoxic, partial curve, poor fit] | Potency [8] 1.48 µM [cytotoxic, partial curve, poor fit] | Potency [9] 14.8 µM [cytotoxic, partial curve, poor fit] | Potency [10] 0.0148 µM [cytotoxic, full curve, poor fit]

Cc1cc(SCc2sc(-c3ccc(C(F)(F)F)cc3)nc2C)ccc1OCC(=O)O
inactive: Potency [2] | Potency [3] | Potency [12]
inconclusive: Potency [1] 16.6 µM [cytotoxic, partial curve, poor fit] | Potency [19] 1.32 µM [cytotoxic, partial curve, poor fit] | Potency [17] 37.2 µM [cytotoxic, single point] | Potency [7] 33.2 µM [cytotoxic, single point] | Potency [18] 3.72 µM [cytotoxic, partial curve, poor fit] | Potency [9] 9.35 µM [cytotoxic, partial curve, poor fit] | Potency [10] 0.0296 µM [cytotoxic, full curve, poor fit] | Potency [11] 16.6 µM [cytotoxic, partial curve, poor fit]

Copied from the results shown, 2 compounds:
CCn1c(-c2nonc2N)nc2cncc(CNC3CCNCC3)c21
inactive: Potency [13] | Potency [7]
active: Potency [16] 14.8 µM | Potency [11] 5.9 µM
inconclusive: Potency [14] 20.9 µM [cytotoxic, partial curve] | Potency [15] 20.9 µM [cytotoxic, partial curve, poor fit] | Potency [2] 0.743 µM [cytotoxic, full curve, poor fit] | Potency [4] 3.32 µM [cytotoxic, full curve, poor fit] | Potency [17] 2.35 µM [cytotoxic, full curve, poor fit] | Potency [6] 3.72 µM [cytotoxic, full curve, poor fit] | Potency [8] 0.0059 µM [rising, full curve, poor fit] | Potency [18] 1.48 µM [cytotoxic, full curve, poor fit] | Potency [9] 3.72 µM [cytotoxic, partial curve, poor fit] | Potency [10] 10.5 µM [cytotoxic, partial curve, poor fit]

NCCCC(O)(P(=O)(O)O)P(=O)(O)O
inactive: Potency [1] | Potency [13] | Potency [19] | viability [6] 137% | Potency [18]
inconclusive: Potency [4] 1.32 µM [rising, partial curve, poor fit] | Potency [5] 1.32 µM [cytotoxic, full curve, poor fit] | Potency [7] 5.26 µM [cytotoxic, partial curve, poor fit] | Potency [8] 1.48 µM [cytotoxic, partial curve, poor fit] | Potency [9] 14.8 µM [cytotoxic, partial curve, poor fit] | Potency [10] 0.0148 µM [cytotoxic, full curve, poor fit]

(cont.)

Oc1cc2c(cc1O)C1c3ccc(O)c(O)c3OCC1(O)C2 (stereo not drawn)
inactive: Potency [1] | Potency [13] | Potency [4] | Potency [5] | viability [6] 120% | Potency [7]
inconclusive: Potency [2] 3.72 µM [cytotoxic, full curve, poor fit] | Potency [9] 33.2 µM [cytotoxic, single point] | Potency [10] 4.69 µM [cytotoxic, single point] | Potency [12] 37.2 µM [cytotoxic, single point]

OCc1ccc(-c2nn(Cc3ccccc3)c3ccccc23)o1
active: Potency [5] 16.6 µM
inactive: Potency [2] | Potency [3] | Potency [18] | Potency [12]
inconclusive: Potency [1] 20.9 µM [cytotoxic, single point] | Potency [13] 0.0012 µM [cytotoxic, full curve, poor fit] | Potency [4] 13.2 µM [cytotoxic, partial curve, poor fit] | Potency [7] 13.2 µM [cytotoxic, partial curve, poor fit] | Potency [8] 26.4 µM [cytotoxic, single point] | Potency [9] 0.0118 µM [rising, full curve, poor fit] | Potency [10] 23.5 µM [cytotoxic, partial curve, poor fit]
